Test results taken from patent publication US20070004616 (published 2007).

Assay: general procedure: Boc solid-phase peptide synthesis; MBHA; HBTU/DIEA
Conditions: whole synthesis, analytical HPLC

## (Aib^8,35)hGLP-1(7-36)NH2
  final HPLC purity: 98.6%
